Measured values: US20250002450A1, “CATIONIC STEROID COMPOUNDS, METHOD OF OBTAINING THEREOF, FORMULATIONS COMPRISING THEREOF AND THEIR USES” (UNIVERSIDADE DO PORTO, priority 2021, published 2025)
Some entries share one result that the patent states for a list of compounds. For at least one compound, name, drawing or mass did not settle the structure.

How the values were obtained:
[1] = system: Staphylococcus aureus ATCC 29213; assay: Antibacterial MIC/MBC (broth microdilution); format: cell-based; details: S. aureus ATCC 29213
Source text: (§1) Twelve reference bacterial strains and nine MDR clinically relevant bacterial strains were used in this study. Gram-negative bacteria comprised reference strains E. coli ATCC 25922, K. pneumoniae ATCC 13883, Salmonella enterica serovar Typhimurium CECT 443, P. aeruginosa ATCC 27853, A. baumannii ATCC 19606, C. jejuni ATCC 33560 (ATCC—American Type Culture Collection; CECT—Colección Espanola de Cultivos Tipo); clinical isolates E. coli SA/2, an extended-spectrum β-lactamase (ESBL)-producing strain and P. aeruginosa 33b, a pan-drug-resistant isolate; and animal isolates C. jejuni P5/4, a ciprofloxacin-resistant strain, C. jejuni 4432, C. jejuni 4433, C. jejuni 4448, and E. coli 2252, a COL-resistant strain [42]. Gram-positive strains included S. aureus ATCC 29213, E. faecalis ATCC 29212, S. pyogenes ATCC 19615, and environmental isolates methicillin-resistant S. aureus (MRSA) 66/1 [43], and VAN-resistant enterococci (VRE) E. faecalis B3/101 [44]. Gram-negative fish pathogens Yersinia ruckeri ATCC 29473, Listonella anguillarum ATCC 1924, and Tenacibaculum maritimum ATCC 43397 were also included.
(§2) Strains were kept in Trypto-Casein Soy agar (TSA—Biokar Diagnostics, Allone, Beauvais, France) slants and, before each assay, were sub-cultured in Mueller-Hinton agar (MHA—Biokar Diagnostics, Allone, Beauvais, France). Y. ruckeri ATCC 29473 and L. anguillarum ATCC 1924 were kept in Nutrient Agar (Condalab, Madrid, Spain) and T. maritimum ATCC 43397 was kept in TMM agar (Condalab, Madrid, Spain), and were sub-cultured in the respective culture media before each assay. For S. pyogenes ATCC 19615, CAMHB was supplemented with 3.75% lysed horse blood (LBH—Oxoid, Basingstoke, England), whereas for C. jejuni it was supplemented with 2.5% LHB. Colony-forming unit counts of the inoculum were conducted to determine the initial inoculum size (which should be approximately 5×10^5 CFU/mL). Sterility and growth controls were included in each assay. The 96-well U-shaped untreated polystyrene microtiter plates were incubated for 20 h at 37 degrees C. (42 degrees C. for C. jejuni, in a microaerophilic atmosphere) and the minimal inhibitory concentration (MIC) was determined as the lowest concentration of compound that prevented visible growth. The minimal bactericidal concentration (MBC) was determined by spreading 100 μL of the content of the wells with no visible growth on MH plates. The MBC was determined as the lowest concentration of compound that killed 99.9% of the initial inoculum after overnight incubation at 37 degrees C. Two independent assays were performed for reference and MDR strains.
(§3) An initial screening of the antibacterial activity of the compounds was performed by the Kirby-Bauer disk diffusion method, as recommended by the Clinical and Laboratory Standards Institute (CLSI). Briefly, sterile 6 mm blank paper disks (Oxoid, Basingstoke, England) impregnated with 15 μg of each compound were placed on inoculated MH agar plates. A blank disk with dimethylsulfoxide (DMSO) was used as a negative control. MH inoculated plates were incubated for 18-20 h at 37 degrees C. At the end of incubation, the inhibition halos where measured. The MIC was used to determine the antibacterial activity of each compound, in accordance with the recommendations of the CLSI. Two-fold serial dilutions of the compounds were prepared in Mueller-Hinton Broth 2 (MHB2—Sigma-Aldrich, St. Louis, MO, USA) within the concentration range of 0.062-64 μg/mL. CTX ranging between 0.031-16 μg/mL was used as a control. Sterility and growth controls were included in each assay. Purity checks and colony counts of the inoculum suspensions were also performed in order to ensure that the final inoculum density closely approximates the intended number (5×10^5 CFU/mL). The MIC was determined as the lowest concentration of compound that inhibited growth of the bacteria. The MBC was assessed by spreading 10 μL of culture collected from wells showing no visible growth on MH agar plates. […]

S. aureus 66/1 (MRSA) = assay: Antibacterial MIC/MBC (broth microdilution); format: cell-based, Staphylococcus aureus
Source text: as §1, §2, §3

With `C[C@H](CCC(=O)NCCN)[C@H]1CC[C@H]2[C@@H]3CC[C@@H]4C[C@H](O)CC[C@]4(C)[C@H]3C[C@H](O)[C@]12C` [Compound 1, (R)—N-(2-aminoethyl)-4-((3R,5R,8R,9S,10S,12S,13R,14S,17R)-3,12-dihydroxy-10,13-dimethylhexadecahydro-1H-cyclopenta[a]phenanthren-17-yl) pentanamida] the “antibacterial activity (in words)” value [1] was “active” and the “antibacterial activity (in words)” value (S. aureus 66/1 (MRSA)) was “showed antibacterial activity”.
For `C[C@H](CCC(=O)N1CCCCC1)[C@H]1CC[C@H]2[C@@H]3CC[C@@H]4C[C@H](O)CC[C@]4(C)[C@H]3C[C@H](O)[C@]12C` [Compound 2, (R)-4-((3R,5R,8R,9S,10S,12S,13R,14S,17R)-3,12-dihydroxy-10,13-dimethylhexadecahydro-1H-cyclopenta[a]phenanthren-17-yl)-1-(piperidin-1-yl) pentan-1-one], the “antibacterial activity (in words)” value [1] was “active” and the “antibacterial activity (in words)” value (S. aureus 66/1 (MRSA)) was “showed antibacterial activity”.
In the case of `C[C@H](CCC(=O)N1CCN(C(=O)CC[C@H](C)[C@@H]2CC[C@@H]3[C@H]4CC[C@H]5C[C@@H](O)CC[C@@]5(C)[C@@H]4C[C@@H](O)[C@]32C)CC1)[C@H]1CC[C@H]2[C@@H]3CC[C@@H]4C[C@H](O)CC[C@]4(C)[C@H]3C[C@H](O)[C@]12C` [Compound 4, (R)-4-((3R,5R,8R,9S,10S,12S,13R,14S,17R)-3,12-dihydroxy-10,13-dimethylhexadecahydro-1H-cyclopenta[a]phenanthren-17-yl)-1-(4-((S)-4-((3S,5S,8S,9R,10R,12R,13S,14R,17S)-3,12-dihydroxy-10,13-dimethylhexadecahydro-1H-cyclopenta[a]phenanthren-17-yl)pentanoyl)piperazin-1-yl) pentan-1-one], the “antibacterial activity (in words)” value [1] is reported as “active” and the “antibacterial activity (in words)” value (S. aureus 66/1 (MRSA)) is reported as “showed antibacterial activity”.
In the case of `C[C@H](CCC(=O)N1CCN(C(=O)OC(C)(C)C)CC1)[C@H]1CC[C@H]2[C@@H]3CC[C@@H]4C[C@H](O)CC[C@]4(C)[C@H]3C[C@H](O)[C@]12C` [Compound 5, tert-butyl 4-((R)-4-((3R,5R,8R,9S,10S,12S,13R,14S,17R)-3,12-dihydroxy-10,13-dimethylhexadecahydro-1H-cyclopenta[a]phenanthren-17-yl)pentanoyl)piperazine-1-carboxylate], the “antibacterial activity (in words)” value [1] is reported as “active” and the “antibacterial activity (in words)” value (S. aureus 66/1 (MRSA)) is reported as “showed antibacterial activity”.
In the case of `CCN(CC)CCNC(=O)CC[C@@H](C)[C@H]1CC[C@H]2[C@@H]3CC[C@@H]4C[C@H](O)CC[C@]4(C)[C@H]3C[C@H](O)[C@]12C` [Compound 6, (R)—N-(2-(diethylamino)ethyl)-4-((3R,5R,8R,9S,10S,12S,13R,14S,17R)-3,12-dihydroxy-10,13-dimethylhexadecahydro-1H-cyclopenta[a]phenanthren-17-yl)pentanamide], the “antibacterial activity (in words)” value [1] is reported as “active” and the “antibacterial activity (in words)” value (S. aureus 66/1 (MRSA)) is reported as “showed antibacterial activity”.
With `C[C@H](CCC(=O)NCCc1nc2ccccc2[nH]1)[C@H]1CC[C@H]2[C@@H]3CC[C@@H]4C[C@H](O)CC[C@]4(C)[C@H]3C[C@H](O)[C@]12C` [Compound 7, (R)—N-(2-(1H-benzo[d]imidazol-2-yl)ethyl)-4-((3R,5R,8R,9S,10S,12S,13R,14S,17R)-3,12-dihydroxy-10,13-dimethylhexadecahydro-1H-cyclopenta[a]phenanthren-17-yl) pentanamide] the “antibacterial activity (in words)” value [1] was “active” and the “antibacterial activity (in words)” value (S. aureus 66/1 (MRSA)) was “showed antibacterial activity”.
With `C[C@H](CCC(=O)NCCNc1ccccc1)[C@H]1CC[C@H]2[C@@H]3CC[C@@H]4C[C@H](O)CC[C@]4(C)[C@H]3C[C@H](O)[C@]12C` [Compound 8, (R)-4-((3R,5R,8R,9S,10S,12S,13R,14S,17R)-3,12-dihydroxy-10,13-dimethylhexadecahydro-1H-cyclopenta[a]phenanthren-17-yl)-N-(2-(phenylamino)ethyl)pentanamide] the “antibacterial activity (in words)” value [1] was “active”.
`C[C@H](CCC(=O)N1CCNCC1)[C@H]1CC[C@H]2[C@@H]3CC[C@@H]4C[C@H](O)CC[C@]4(C)[C@H]3C[C@H](O)[C@]12C` [Compound 9, (R)-4-((3R,5R,8R,9S,10S,12S,13R,14S,17R)-3,12-dihydroxy-10,13-dimethylhexadecahydro-1H-cyclopenta[a]phenanthren-17-yl)-1-(piperazin-1-yl) pentan-1-one] was tested, and the “antibacterial activity (in words)” value [1] was “active” and the “antibacterial activity (in words)” value (S. aureus 66/1 (MRSA)) was “showed antibacterial activity”.
